Among the data in patent US20260209300A1 are binding values, retold here.

Amino acid sequences for entries named in this document (tags omitted). Residues count along the entry.
UniProt P07724, residues 25-608: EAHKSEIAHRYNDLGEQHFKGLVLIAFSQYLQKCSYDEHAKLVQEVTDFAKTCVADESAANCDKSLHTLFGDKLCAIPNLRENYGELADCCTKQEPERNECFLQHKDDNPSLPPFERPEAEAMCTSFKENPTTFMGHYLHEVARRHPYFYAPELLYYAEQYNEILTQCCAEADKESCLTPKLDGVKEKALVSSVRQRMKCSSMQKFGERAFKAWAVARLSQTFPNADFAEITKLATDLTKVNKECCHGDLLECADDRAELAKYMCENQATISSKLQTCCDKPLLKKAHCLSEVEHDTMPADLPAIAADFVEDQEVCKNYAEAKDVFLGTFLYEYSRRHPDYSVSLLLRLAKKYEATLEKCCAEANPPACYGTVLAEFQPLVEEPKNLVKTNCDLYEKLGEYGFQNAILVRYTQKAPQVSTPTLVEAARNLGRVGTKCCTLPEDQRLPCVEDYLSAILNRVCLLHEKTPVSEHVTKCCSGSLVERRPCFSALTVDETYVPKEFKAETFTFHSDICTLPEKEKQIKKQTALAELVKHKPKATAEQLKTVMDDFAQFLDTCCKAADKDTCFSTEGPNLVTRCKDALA
UniProt P02768, residues 25-609: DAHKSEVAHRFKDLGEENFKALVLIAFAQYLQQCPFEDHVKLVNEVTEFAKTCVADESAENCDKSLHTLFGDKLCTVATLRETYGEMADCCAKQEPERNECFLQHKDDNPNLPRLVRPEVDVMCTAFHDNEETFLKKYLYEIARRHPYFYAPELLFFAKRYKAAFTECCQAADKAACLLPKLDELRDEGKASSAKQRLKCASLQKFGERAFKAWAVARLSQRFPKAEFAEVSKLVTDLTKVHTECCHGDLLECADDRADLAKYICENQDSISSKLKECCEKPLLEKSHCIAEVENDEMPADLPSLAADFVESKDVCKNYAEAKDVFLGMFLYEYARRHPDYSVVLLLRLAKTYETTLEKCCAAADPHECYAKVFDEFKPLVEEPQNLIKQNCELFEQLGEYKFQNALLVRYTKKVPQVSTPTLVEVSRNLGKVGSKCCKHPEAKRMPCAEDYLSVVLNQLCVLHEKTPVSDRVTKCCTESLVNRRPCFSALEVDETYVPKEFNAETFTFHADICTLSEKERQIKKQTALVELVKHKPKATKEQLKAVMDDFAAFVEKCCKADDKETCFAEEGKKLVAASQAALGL

No constants are given. Whether binding was seen depends on the method and setting. Some binding calls cover weakened binding; strength is not graded here.

For test [1], the target named is mouse serum albumin (mouse) (UniProt P07724). As to the kind of experiment: ELISA. A general note: In an ELISA, binding on a coated surface is turned into a signal by an enzyme label.
The target in test [2] is human serum albumin (human) (UniProt P02768). The experiment in a line: ELISA.

B1: SAFA-IL-2m2 (APB-R4) (protein)
heavy: QVQLVQSGGGPVKPGGSLRLSCAASGFMFRAYSMNWVRQAPGKGLEWVSSISSSGRYIHYADSVKGRFTISRDNAKNSLYLQMNSLRAEDTAVYYCARETVMAGKALDYWGQGTLVTVSSASTKGPSVFPLAPSSKSTSEGTAALGCLVKDYFPEPVTVSWNSGALTSGVHTFPAVLQSSGLYSLSSVVTVPSSSLGTQTYICNVNHKPSNTKVDKKVEPKSSGGGGSGGGGSAPTSSSTKKTQLQLEHLLLDLQMILNGINNYKNPKLTRMLTFKFYMPKKATELKHLQCLEEELKPLEEVLNLAQSKNFHLRPRDLISRINDIVLELKGSETTFSCEYADETATIVEFLNRWITFAQSIISTLT
light: DIVLTQSPGTLSLSPGETATLSCRASQSVGSNLAWYQQKPGQAPRLLIYGASTGATGVPARFSGSRSGTDFTLTITSLQPEDFATYYCQQYYSFLAKTFGQGTQLEIKRTVAAPSVFIFPPSDEQLKSGTASVVCLLNNFYPREAKVQWKVDNALQSGNSQESVTEQDSKDSTYSLSNTLTLSKADYEKHKVYACEVTHQGLSSPVTKSFNRGES
As for B1, the binding entry in test [1] and in test [2] was “binds” each time.
